No constants are given. Whether binding was seen depends on the method and setting. Binding seen in cells or lysates may run through a third protein. Some entries that bind do so weakly or less than the wild type.
Biological target: T1, RANK (mouse (endogenous in RAW264.7)) (UniProt O35305)
T1 sequence: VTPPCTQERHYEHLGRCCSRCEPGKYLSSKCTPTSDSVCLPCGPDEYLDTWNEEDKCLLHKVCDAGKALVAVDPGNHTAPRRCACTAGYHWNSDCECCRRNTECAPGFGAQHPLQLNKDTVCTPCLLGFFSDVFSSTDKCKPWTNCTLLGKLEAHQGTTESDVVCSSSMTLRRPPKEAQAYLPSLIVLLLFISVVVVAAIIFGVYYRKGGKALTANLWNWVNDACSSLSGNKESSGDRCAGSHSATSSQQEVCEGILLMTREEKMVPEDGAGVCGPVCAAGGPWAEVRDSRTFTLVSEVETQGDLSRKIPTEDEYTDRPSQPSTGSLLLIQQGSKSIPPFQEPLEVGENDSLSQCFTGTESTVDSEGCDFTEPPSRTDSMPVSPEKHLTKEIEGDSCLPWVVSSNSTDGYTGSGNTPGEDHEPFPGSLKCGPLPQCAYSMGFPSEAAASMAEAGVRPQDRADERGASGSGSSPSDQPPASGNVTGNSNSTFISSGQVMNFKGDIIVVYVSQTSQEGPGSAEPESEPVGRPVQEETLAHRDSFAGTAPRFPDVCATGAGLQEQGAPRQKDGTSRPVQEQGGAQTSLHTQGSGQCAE
Assay: co-IP; RAW264.7 lysate precipitated with 2 ug anti-RANK antibody overnight at 4 °C, protein A/G-agarose, Western blot for TRAF6; cells treated with RANKL with or without CXCL13

binding: binds
B1: TNF receptor-associated factor 6 (TRAF6) (protein, UniProt P70196 1-530)
chain: MSLLNCENSCGSSQSSSDCCAAMAASCSAAVKDDSVSGSASTGNLSSSFMEEIQGYDVEFDPPLESKYECPICLMALREAVQTPCGHRFCKACIIKSIRDAGHKCPVDNEILLENQLFPDNFAKREILSLTVKCPNKGCLQKMELRHLEDHQVHCEFALVNCPQCQRPFQKCQVNTHIIEDCPRRQVSCVNCAVSMAYEEKEIHDQSCPLANIICEYCGTILIREQMPNHYDLDCPTAPIPCTFSVFGCHEKMQRNHLARHLQENTQLHMRLLAQAVHNVNLALRPCDAASPSRGCRPEDPNYEETIKQLESRLVRQDHQIRELTAKMETQSMYVGELKRTIRTLEDKVAEMEAQQCNGIYIWKIGNFGMHLKSQEEERPVVIHSPGFYTGRPGYKLCMRLHLQLPTAQRCANYISLFVHTMQGEYDSHLPWPFQGTIRLTILDQSEALIRQNHEEVMDAKPELLAFQRPTIPRNPKGFGYVTFMHLEALRQGTFIKDDTLLVRCEVSTRFDMGGLRKEGFQPRSTDAGV
